Measurements reported in PubChem BioAssay AID1224830 (NIAID, 2016).
Test: 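Regulators of TLR4 signalling towards TNF-alpha in macrophage-like cells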 (primary screen). Cell system: human THP-1 monocytic leukaemia cells, TNF dual-luciferase reporter clone, PMA-differentiated to macrophage-like cells. Reagent: siRNA pool against human genes, 50 nM. Timing: LPS for 4 h, given about 3 days after siRNA transfection. Challenge: bacterial LPS (TLR4 ligand), 10 ng/ml. Measured: 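Ratio of firefly to renilla light, scaled to the plate median and expressed as a robust z-score per replicate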. Scale: TNF reporter robust z-score: higher = stronger TNF reporter response to LPS. Call rule: 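a well is active when its z-score exceeds 2.8 or falls below -1.5; control wells carry no call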.
Here is an unselected part of about 18,000 reagents tested. About 2,900 of all reagents (16%) were called active. 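Calls are made per well; low scores hint the gene aids the LPS response, high scores that it dampens it.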 Repeated entries: four replicate wells of each siRNA pool. No sequences are given here.

With knock-down of SPON1 (GeneID 10418) the results were TNF reporter robust z-score -0.25; inactive.
Depletion of SPON1 (GeneID 10418) gave: TNF reporter robust z-score 0.47; inactive.
SPON1 (GeneID 10418) showed TNF reporter robust z-score 0.77; inactive.
SPON1 (GeneID 10418) gave TNF reporter robust z-score 0.54; inactive.
With knock-down of OTUD4 (GeneID 54726), the record shows TNF reporter robust z-score -0.34; inactive.
Depletion of OTUD4 (GeneID 54726) gave: TNF reporter robust z-score -0.58; inactive.
Against OTUD4 (GeneID 54726), the values are TNF reporter robust z-score 0.44; inactive.
With knock-down of OTUD4 (GeneID 54726), the screen gave TNF reporter robust z-score 0.07; inactive.
After knock-down of SRPRB (GeneID 58477), the record shows TNF reporter robust z-score -0.15; inactive.
With knock-down of SRPRB (GeneID 58477), the record shows TNF reporter robust z-score 0.02; inactive.
Depletion of SRPRB (GeneID 58477) gave: TNF reporter robust z-score -1; inactive.
With knock-down of SRPRB (GeneID 58477) the results were TNF reporter robust z-score -0.22; inactive.
Depletion of CAPS (GeneID 828) resulted in: TNF reporter robust z-score -0.52; inactive.
Knock-down of CAPS (GeneID 828) resulted in: TNF reporter robust z-score 0.16; inactive.
After knock-down of CAPS (GeneID 828) the results were TNF reporter robust z-score 0; inactive.
CAPS (GeneID 828) gave TNF reporter robust z-score 0.56; inactive.
POLR1F (GeneID 221830) showed TNF reporter robust z-score -0.94; inactive.
Depletion of POLR1F (GeneID 221830) came out at: TNF reporter robust z-score -1.3; inactive.
Against POLR1F (GeneID 221830) the deposit lists TNF reporter robust z-score -1.35; inactive.
POLR1F (GeneID 221830) showed TNF reporter robust z-score -0.78; inactive.
After knock-down of DGAT2L6 (GeneID 347516) the results were TNF reporter robust z-score -0.45; inactive.
Against DGAT2L6 (GeneID 347516), the values are TNF reporter robust z-score -0.36; inactive.
With knock-down of DGAT2L6 (GeneID 347516), the screen gave TNF reporter robust z-score -0.17; inactive.
DGAT2L6 (GeneID 347516) scored TNF reporter robust z-score -0.1; inactive.
CDK20 (GeneID 23552) scored TNF reporter robust z-score -0.98; inactive.
After knock-down of CDK20 (GeneID 23552) the results were TNF reporter robust z-score -1.02; inactive.
Depletion of CDK20 (GeneID 23552) resulted in: TNF reporter robust z-score -1.38; inactive.
Silencing of CDK20 (GeneID 23552) gave: TNF reporter robust z-score -0.95; inactive.
Knock-down of KLHL18 (GeneID 23276) gave: TNF reporter robust z-score 1.25; inactive.
KLHL18 (GeneID 23276) showed TNF reporter robust z-score -0.05; inactive.
With knock-down of KLHL18 (GeneID 23276) the results were TNF reporter robust z-score -0.56; inactive.
KLHL18 (GeneID 23276) showed TNF reporter robust z-score -0.35; inactive.

A run of entries taken from the entries so far, as a working copy:
OTUD4 (GeneID 54726): TNF reporter robust z-score = 0.07; Call = inactive
SRPRB (GeneID 58477): TNF reporter robust z-score = -0.15; Call = inactive
